Measurements published in PMC7935889.
No constants are given. Whether binding was seen depends on the method and setting. In cells and extracts the contact can be indirect. A result given as binding can be weak or reduced; the word gives no strength. Where a sequence is shown, tags or fusion partners need not be part of it.

Target: T1, Recombinant GST-hSLP4A (human (from the prefix h in hSlp4-a)) (UniProt Q96C24)
T1 sequence: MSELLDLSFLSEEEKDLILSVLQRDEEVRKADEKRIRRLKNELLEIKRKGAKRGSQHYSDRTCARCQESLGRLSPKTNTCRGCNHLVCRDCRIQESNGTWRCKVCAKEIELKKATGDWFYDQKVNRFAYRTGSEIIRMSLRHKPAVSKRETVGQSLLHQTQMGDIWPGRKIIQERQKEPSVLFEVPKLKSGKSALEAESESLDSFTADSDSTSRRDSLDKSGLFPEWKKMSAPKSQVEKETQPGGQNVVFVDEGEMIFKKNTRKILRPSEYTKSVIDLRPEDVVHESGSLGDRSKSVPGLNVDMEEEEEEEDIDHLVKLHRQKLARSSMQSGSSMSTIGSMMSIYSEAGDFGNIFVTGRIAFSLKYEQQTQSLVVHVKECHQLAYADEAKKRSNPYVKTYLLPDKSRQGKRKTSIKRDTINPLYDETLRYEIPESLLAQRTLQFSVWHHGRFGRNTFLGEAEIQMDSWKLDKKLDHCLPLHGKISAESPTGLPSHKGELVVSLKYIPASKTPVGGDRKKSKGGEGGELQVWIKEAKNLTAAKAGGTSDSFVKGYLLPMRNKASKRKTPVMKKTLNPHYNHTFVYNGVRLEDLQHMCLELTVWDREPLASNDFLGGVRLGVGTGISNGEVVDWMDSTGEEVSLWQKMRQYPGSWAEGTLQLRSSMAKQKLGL
Assay: pull-down; GST-hSLP4A held on glutathione sepharose beads, incubated with astrocyte lysate for 1 hour at 4 °C; lysis buffer 20 mM HEPES, 150 mM NaCl, 0.5% Triton X-100; four washes; western blot for RAB8 and GST; lysates of WT and Dbn-/- astrocytes without or 24 h after scratch injury; only the target …

## endogenous GTP-bound RAB8 from astrocytes
  binding: binds
